Source: PMC7641761

Chains of the proteins cited; added tags and fusions are not shown. Chains listed by the source or under a name are the forms on record and can include a tag or linker.
Ku dCTR (human), one chain, as listed by the source, chain 1 of 2: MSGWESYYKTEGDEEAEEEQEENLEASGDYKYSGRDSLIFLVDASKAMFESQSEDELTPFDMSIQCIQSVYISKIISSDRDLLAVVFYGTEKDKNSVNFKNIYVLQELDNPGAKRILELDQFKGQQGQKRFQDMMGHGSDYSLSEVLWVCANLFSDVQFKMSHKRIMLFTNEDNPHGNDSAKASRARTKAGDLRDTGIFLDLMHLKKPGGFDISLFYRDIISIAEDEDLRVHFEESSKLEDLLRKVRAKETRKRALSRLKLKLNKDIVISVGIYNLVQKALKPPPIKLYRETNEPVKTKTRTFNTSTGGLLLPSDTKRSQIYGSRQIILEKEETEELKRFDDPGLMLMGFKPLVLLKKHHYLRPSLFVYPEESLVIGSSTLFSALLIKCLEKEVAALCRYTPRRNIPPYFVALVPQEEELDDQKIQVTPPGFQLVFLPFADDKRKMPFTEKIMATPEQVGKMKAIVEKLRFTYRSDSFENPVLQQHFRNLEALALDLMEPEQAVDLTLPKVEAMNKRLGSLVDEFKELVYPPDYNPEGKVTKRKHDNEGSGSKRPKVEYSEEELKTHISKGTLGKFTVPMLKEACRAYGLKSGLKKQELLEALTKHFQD
Ku5D T305D,S306D,T307D,S314D,T316D (human), one chain, as listed by the source T305D S306D T307D S314D T316D, chain 1 of 2: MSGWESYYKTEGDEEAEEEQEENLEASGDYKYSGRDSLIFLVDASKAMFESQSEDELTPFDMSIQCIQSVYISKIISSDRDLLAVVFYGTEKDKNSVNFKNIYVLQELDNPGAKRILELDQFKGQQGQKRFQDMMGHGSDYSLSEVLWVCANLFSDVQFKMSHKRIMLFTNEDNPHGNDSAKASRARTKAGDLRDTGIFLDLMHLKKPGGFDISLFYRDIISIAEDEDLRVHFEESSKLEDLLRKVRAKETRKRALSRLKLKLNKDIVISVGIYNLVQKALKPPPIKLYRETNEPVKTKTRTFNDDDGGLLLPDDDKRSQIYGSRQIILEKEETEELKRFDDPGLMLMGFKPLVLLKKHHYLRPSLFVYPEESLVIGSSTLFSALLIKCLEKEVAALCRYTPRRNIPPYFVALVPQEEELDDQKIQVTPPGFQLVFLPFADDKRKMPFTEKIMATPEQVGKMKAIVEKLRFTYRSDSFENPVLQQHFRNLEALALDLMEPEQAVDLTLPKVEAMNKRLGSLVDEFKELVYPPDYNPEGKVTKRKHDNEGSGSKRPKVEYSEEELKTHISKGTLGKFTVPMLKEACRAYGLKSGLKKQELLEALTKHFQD
Ku70/Ku80 heterodimer (HeLa) (human (HeLa cells)), one chain, as listed by the source, chain 1 of 2: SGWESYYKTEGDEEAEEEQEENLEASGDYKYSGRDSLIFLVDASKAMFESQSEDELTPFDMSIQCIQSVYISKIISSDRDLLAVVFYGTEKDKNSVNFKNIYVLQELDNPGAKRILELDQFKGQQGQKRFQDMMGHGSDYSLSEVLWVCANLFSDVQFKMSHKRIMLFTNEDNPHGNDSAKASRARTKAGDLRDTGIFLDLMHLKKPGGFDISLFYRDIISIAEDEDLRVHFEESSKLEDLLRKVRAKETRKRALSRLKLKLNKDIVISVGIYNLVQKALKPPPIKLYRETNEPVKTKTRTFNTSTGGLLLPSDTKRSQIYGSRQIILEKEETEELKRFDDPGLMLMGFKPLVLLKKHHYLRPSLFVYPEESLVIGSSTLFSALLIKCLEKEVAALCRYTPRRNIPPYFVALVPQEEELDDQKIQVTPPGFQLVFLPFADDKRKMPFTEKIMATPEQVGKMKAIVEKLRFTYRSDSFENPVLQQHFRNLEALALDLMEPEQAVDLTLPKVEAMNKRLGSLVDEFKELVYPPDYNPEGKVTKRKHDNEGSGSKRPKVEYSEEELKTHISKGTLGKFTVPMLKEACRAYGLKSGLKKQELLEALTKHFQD
Ku70/Ku80 heterodimer (HeLa) (human (HeLa cells)), one chain, as listed by the source, chain 2 of 2: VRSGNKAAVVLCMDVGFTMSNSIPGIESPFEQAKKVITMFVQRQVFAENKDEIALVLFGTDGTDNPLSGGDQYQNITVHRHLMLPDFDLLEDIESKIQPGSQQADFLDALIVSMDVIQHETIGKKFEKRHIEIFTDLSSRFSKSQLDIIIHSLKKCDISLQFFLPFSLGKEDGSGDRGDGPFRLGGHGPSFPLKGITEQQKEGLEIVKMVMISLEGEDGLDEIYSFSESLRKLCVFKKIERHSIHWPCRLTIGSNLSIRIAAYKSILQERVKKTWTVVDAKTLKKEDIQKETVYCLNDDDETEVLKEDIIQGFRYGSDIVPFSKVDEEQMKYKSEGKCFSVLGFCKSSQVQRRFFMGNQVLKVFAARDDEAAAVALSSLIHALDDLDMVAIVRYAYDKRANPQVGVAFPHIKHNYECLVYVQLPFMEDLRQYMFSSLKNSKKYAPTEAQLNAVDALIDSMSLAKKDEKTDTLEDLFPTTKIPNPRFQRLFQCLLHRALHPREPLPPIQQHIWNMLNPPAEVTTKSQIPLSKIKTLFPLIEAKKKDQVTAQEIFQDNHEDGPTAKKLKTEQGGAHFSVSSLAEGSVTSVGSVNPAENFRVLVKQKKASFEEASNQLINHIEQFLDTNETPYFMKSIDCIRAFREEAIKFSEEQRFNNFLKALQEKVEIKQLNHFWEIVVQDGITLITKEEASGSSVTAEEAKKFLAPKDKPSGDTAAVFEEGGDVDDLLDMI
Ku5A T305A,S306A,T307A,S314A,T316A (human), one chain, as listed by the source T305A S306A T307A S314A T316A, chain 1 of 2: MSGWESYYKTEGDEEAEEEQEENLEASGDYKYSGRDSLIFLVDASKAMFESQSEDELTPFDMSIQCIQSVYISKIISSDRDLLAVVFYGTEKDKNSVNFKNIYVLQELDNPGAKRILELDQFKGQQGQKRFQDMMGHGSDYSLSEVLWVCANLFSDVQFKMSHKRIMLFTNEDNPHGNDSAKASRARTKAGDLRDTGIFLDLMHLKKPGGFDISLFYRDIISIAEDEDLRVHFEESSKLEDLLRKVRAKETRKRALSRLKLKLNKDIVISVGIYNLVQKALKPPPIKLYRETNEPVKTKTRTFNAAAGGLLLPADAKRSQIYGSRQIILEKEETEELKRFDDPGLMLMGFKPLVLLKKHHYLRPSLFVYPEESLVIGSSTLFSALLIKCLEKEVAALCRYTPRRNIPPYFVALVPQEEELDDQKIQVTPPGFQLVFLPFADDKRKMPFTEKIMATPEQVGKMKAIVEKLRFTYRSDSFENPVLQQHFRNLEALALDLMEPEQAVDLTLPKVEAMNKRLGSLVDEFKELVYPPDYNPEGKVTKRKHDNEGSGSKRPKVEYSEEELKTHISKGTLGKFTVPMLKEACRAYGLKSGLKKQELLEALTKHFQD
Ku dCTR (human), one chain, as listed by the source, chain 2 of 2: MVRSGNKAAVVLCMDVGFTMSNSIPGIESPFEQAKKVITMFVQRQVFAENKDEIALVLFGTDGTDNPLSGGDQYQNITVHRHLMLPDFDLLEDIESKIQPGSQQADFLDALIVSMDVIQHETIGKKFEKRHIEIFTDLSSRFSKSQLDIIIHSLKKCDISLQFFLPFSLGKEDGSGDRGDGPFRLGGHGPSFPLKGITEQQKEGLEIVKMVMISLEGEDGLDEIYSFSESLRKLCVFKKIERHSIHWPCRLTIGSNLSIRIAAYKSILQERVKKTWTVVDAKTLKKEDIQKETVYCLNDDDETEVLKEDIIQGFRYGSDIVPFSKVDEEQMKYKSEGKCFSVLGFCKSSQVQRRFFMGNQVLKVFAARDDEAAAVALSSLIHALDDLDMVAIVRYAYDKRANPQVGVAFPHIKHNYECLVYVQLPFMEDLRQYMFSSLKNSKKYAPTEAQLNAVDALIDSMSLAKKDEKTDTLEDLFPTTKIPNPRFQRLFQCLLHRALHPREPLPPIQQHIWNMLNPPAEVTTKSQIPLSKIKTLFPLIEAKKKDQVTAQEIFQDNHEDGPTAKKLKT

Key:
[1] = test system: Ku70/Ku80 heterodimer (HeLa) (human (HeLa cells)); assay: EMSA; details: EMSA: 25 mM Hepes-KOH pH 7.5, 50 mM NaCl, 1 mM DTT, 1 mM EDTA, 10% glycerol, 0.1 uM BSA, room temperature, 25 min, native protein
[2] = test system: Ku70/Ku80 heterodimer FL (baculovirus) + PAXX; assay: EMSA; details: no supershift by PAXX, Ku-RNA complex unaffected; EMSA: 25 mM Hepes-KOH pH 7.5, 50 mM NaCl, 1 mM DTT, 1 mM EDTA, 10% glycerol, 0.1 uM BSA, room temperature, 25 min; recombinant protein; protein details: His (Ku80),GST cleaved; label: 5'-FAM
Ku dCTR (human) = assay: EMSA; details: EMSA: 25 mM Hepes-KOH pH 7.5, 50 mM NaCl, 1 mM DTT, 1 mM EDTA, 10% glycerol, 0.1 uM BSA, room temperature, 25 min, recombinant protein
[3] = test system: Ku70/Ku80 heterodimer FL (baculovirus) + APLF; assay: EMSA; details: supershift, EMSA: 25 mM Hepes-KOH pH 7.5, 50 mM NaCl, 1 mM DTT, 1 mM EDTA, 10% glycerol, 0.1 uM BSA, room temperature, 25 min, recombinant protein, protein details: His (Ku80)
[4] = test system: Ku70/Ku80 heterodimer FL (baculovirus) (human); assay: EMSA; details: EMSA: 25 mM Hepes-KOH pH 7.5, 50 mM NaCl, 1 mM DTT, 1 mM EDTA, 10% glycerol, 0.1 uM BSA, room temperature, 25 min, recombinant protein, protein details: His (Ku80)
[5] = test system: Ku5A T305A,S306A,T307A,S314A,T316A (human); assay: SEC-SAXS; details: Ku dimer fraction increased; recombinant protein; label: 5'-FAM
[6] = test system: Ku5D T305D,S306D,T307D,S314D,T316D (human); assay: SEC-SAXS; details: Ku dimer fraction increased; recombinant protein; label: 5'-FAM

Row | Sequence | binding result ([1]; label: 5'-FAM) | binding result [2] | binding result (Ku dCTR (human); label: 5'-FAM) | binding result ([3]; label: 5'-FAM) | binding result ([4]; label: 5'-FAM) | other results
1 | CCUGGGGUAGGAGAGGGUAUGGGGACCAGGGCACU [LINP1 GQ1] | binds | no binding | binds | binds |  | 
2 | AGCATTGACTGGCATCGTAGCATCC (double strand) [25bp duplex DNA] |  |  |  |  |  | binding result ([1]; label: 3'-FAM on lower …): binds; binding result ([4]; label: 3'-FAM on lower strand): binds; binding result (Ku dCTR (human); label: 3'-FAM on lower strand): binds; binding result ([3]; label: 3'-FAM on lower strand): binds
3 | AAGGCUAGACCGGGGGCUCGCAUAUCUCCACUUGCAGCUGCCACUGCCA [SL3] | binds | no binding | binds | binds |  | 
4 | UGACUUUUCCUUGCUCAUUUUUUUGAGAAGGAGGUGGCG [SL2-LM] |  |  |  |  | binds more weakly | 
5 | UGACUUUUCCUUGCUCAAUAGAAUGAGAAGGAGGUGGCG [SL2] | binds | no binding | binds | binds |  | binding result [5]: binds; binding result [6]: binds
6 | UGACUGGAGGAAGGAGUAUAGAAACUCUUCCUUUUGGCG [SL2-BT] |  |  |  |  | binds more weakly | 

For some assays here: A weaker result is weaker than the reference pair of the same experiment. Construct, isoform or probe ends are uncertain for at least one entry. For some assays here: A negative result means that nothing was seen under these conditions. For some assays here: At least one verdict rests on a figure or table, not on a statement of the authors.
